Data on two molecules can be found in article PMC8684776, “Discovery and characterization of potent And‐1 inhibitors for cancer treatment” (Clinical and Translational Medicine, 2021).

Chains of the proteins cited; added tags and fusions are not shown.
UniProt Q13620: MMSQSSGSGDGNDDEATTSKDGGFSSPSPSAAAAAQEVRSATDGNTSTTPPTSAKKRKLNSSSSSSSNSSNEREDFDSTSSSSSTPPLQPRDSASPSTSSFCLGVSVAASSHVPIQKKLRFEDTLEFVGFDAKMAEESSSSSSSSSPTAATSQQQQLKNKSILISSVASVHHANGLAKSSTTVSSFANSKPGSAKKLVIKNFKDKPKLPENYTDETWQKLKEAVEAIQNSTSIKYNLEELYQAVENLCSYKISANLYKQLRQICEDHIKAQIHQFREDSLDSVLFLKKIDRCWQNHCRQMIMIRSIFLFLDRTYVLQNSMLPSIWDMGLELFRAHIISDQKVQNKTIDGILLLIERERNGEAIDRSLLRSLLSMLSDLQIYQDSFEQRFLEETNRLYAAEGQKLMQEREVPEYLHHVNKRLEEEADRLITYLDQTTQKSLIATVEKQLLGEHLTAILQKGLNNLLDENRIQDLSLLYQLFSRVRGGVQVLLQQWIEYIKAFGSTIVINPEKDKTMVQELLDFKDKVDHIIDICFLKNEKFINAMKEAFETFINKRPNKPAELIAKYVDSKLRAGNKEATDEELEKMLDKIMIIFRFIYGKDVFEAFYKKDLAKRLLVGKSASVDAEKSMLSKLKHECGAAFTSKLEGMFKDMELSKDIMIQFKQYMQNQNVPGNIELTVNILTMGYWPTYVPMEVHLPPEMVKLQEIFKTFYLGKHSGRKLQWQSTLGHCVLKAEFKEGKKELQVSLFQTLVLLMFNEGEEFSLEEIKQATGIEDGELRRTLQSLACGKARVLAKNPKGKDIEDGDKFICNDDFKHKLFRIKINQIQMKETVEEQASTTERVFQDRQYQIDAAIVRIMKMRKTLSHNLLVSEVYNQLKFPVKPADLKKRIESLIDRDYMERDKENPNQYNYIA

Assay [1] concerns the target T1, FLAG‐And‐1‐K130R (human) (UniProt O75717).
T1 sequence: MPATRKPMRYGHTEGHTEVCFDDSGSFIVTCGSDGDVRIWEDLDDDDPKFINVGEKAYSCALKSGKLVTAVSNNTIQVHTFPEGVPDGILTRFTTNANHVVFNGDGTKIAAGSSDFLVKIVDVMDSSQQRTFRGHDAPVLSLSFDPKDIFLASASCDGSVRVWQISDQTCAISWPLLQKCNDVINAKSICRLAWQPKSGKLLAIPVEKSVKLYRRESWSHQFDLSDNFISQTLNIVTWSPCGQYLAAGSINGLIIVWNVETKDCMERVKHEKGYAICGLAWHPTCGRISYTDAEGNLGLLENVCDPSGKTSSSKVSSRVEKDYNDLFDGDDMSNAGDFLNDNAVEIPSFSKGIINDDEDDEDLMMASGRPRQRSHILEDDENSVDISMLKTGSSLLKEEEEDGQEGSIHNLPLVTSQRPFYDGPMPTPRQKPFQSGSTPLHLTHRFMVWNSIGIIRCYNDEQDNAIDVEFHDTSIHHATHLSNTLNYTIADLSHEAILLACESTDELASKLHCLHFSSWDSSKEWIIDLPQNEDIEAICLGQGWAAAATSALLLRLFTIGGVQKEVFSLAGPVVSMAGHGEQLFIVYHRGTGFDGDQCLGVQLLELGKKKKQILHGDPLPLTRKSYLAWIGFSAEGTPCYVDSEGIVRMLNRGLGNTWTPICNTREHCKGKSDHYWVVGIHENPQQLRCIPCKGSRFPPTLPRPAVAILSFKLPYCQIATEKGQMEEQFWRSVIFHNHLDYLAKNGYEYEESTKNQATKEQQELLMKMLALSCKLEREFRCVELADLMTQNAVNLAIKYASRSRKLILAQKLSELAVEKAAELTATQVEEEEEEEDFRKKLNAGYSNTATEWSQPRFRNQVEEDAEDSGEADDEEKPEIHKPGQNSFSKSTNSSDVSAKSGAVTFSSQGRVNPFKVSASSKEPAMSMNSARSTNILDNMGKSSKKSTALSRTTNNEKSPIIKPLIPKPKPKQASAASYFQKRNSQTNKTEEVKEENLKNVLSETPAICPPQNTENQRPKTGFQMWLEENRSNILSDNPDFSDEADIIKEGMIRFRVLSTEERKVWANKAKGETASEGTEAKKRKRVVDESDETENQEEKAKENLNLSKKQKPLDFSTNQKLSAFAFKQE
The assay can be described thus: co-IP; FLAG-And-1 or its mutants expressed in cells, endogenous CUL4B detected by immunoblot; cells treated with or without CH3 (also at several concentrations), followed by 10 uM MG132; precipitating antibody not stated for these panels.

Assay [2] deals with T2, FLAG‐And‐1‐WT (acidic nucleoplasmic DNA‐binding protein 1) (human) (UniProt O75717).
T2 sequence: T1 sequence with R130K
Described as above.

Assay [3] addresses And‐1 (FLAG‐And‐1 and HA‐And‐1 expressed together) (human) (UniProt O75717). The assay can be described thus: co-IP; U2OS cells transfected with both FLAG-And-1 and HA-And-1; treated with or without CH3, also at several concentrations.

Where a chain is given by its changes, count along the chain named. Results are given in words; binding and its absence hold for the method and conditions named. Binding seen in cells or lysates may run through a third protein. Some entries that bind do so weakly or less than the wild type. Where a sequence is shown, tags or fusion partners need not be part of it.

As for Cullin 4B (from UniProt Q13620 1-913), the binding entry in assay [1] and in assay [2] was “binds” throughout.

B1: And‐1 (FLAG‐And‐1 and HA‐And‐1 expressed together) (protein, UniProt O75717 1-1129)
chain: T1 sequence with R130K
For B1, the binding entry in assay [3] is “binds”.
